No constants are given. Whether binding was seen depends on the method and setting. In cells and extracts the contact can be indirect. These calls come from enrichment with a bait or labelling near it, and not all partners need be listed. No binding means not detected with the bait.
molecular target: Flag-tagged CDK8 expressed in 293-F cells (human) (UniProt P49336); assay: affinity purification with mass spectrometry

Sequences of proteins named here, by UniProt entry; tags and fusion partners are left off.
UniProt P49336: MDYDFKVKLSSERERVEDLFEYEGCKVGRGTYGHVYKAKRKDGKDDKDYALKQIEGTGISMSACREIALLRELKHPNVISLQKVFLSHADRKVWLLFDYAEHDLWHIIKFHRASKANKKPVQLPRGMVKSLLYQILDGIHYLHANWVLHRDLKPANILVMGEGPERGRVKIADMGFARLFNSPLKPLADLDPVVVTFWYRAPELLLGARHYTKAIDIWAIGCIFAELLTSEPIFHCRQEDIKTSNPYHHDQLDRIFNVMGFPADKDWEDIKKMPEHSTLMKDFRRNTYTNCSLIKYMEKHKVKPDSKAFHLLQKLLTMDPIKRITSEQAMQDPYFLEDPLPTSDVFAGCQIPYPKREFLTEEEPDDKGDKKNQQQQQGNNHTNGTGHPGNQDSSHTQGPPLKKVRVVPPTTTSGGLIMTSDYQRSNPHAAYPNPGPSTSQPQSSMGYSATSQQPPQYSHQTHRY
UniProt Q9BWU1: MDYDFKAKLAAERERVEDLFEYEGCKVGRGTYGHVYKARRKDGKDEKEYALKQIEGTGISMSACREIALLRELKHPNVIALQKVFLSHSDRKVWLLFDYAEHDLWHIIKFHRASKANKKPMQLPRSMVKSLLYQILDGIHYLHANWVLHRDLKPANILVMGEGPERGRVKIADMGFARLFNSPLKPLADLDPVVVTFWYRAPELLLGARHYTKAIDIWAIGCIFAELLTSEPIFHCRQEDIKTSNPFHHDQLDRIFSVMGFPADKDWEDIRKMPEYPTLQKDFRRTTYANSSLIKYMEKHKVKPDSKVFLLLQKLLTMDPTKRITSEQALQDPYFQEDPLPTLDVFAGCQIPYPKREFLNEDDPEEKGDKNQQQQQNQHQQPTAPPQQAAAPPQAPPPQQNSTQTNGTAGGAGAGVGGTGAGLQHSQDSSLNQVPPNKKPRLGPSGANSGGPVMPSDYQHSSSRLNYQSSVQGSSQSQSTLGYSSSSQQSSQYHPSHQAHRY
UniProt Q86YW9: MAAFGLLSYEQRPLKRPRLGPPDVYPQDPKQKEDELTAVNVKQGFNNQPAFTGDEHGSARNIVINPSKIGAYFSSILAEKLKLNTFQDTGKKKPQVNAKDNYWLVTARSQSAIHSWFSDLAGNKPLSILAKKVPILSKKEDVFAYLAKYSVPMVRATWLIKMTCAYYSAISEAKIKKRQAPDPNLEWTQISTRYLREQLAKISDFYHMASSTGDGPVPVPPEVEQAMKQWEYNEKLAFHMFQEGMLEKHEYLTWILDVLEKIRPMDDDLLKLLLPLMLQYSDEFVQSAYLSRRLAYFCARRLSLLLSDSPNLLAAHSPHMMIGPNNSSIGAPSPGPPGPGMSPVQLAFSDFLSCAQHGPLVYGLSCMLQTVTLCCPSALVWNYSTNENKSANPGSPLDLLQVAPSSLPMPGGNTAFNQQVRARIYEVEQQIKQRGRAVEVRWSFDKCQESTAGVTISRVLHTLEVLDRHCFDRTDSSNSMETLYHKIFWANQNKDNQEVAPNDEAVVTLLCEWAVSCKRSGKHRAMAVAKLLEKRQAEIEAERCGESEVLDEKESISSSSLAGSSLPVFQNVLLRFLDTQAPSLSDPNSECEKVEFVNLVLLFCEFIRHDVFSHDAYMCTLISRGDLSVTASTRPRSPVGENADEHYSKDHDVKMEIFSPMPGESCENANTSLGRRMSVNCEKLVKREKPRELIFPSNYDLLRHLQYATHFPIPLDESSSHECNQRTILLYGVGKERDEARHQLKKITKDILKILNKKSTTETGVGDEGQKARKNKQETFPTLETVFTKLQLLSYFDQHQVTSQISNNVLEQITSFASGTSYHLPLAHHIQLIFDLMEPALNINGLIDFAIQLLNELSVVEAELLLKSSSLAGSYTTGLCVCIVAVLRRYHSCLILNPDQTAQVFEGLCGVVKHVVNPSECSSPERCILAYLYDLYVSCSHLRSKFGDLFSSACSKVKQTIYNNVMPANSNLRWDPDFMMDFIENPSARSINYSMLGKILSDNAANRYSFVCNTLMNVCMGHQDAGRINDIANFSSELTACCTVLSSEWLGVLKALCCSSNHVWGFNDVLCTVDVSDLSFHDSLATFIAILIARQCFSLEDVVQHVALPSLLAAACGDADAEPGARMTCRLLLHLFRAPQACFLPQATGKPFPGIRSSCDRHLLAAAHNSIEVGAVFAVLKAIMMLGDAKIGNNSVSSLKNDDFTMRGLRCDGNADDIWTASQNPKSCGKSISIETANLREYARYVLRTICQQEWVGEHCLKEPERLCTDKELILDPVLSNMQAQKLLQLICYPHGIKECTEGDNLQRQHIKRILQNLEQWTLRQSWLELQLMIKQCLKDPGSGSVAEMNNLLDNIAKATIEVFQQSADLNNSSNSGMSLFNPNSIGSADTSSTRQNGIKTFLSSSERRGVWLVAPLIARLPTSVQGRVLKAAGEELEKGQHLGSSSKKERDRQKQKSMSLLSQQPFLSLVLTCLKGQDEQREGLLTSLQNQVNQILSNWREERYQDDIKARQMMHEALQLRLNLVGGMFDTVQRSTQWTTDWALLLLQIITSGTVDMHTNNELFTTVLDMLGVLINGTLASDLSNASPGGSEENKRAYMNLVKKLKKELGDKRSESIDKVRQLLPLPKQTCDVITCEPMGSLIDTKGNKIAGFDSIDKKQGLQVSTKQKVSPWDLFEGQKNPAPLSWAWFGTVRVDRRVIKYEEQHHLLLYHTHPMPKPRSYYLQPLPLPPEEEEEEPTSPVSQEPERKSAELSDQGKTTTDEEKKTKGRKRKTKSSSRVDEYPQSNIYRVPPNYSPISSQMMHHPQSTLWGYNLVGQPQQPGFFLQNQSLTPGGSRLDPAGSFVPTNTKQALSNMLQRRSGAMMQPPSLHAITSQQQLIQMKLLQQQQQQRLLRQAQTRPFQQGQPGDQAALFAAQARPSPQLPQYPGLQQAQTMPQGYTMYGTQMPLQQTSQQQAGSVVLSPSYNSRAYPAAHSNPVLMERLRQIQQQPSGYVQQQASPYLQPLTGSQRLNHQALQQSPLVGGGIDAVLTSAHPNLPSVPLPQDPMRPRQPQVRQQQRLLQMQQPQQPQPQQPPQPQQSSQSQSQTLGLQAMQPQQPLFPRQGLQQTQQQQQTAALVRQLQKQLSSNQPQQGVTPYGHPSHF
UniProt Q71F56: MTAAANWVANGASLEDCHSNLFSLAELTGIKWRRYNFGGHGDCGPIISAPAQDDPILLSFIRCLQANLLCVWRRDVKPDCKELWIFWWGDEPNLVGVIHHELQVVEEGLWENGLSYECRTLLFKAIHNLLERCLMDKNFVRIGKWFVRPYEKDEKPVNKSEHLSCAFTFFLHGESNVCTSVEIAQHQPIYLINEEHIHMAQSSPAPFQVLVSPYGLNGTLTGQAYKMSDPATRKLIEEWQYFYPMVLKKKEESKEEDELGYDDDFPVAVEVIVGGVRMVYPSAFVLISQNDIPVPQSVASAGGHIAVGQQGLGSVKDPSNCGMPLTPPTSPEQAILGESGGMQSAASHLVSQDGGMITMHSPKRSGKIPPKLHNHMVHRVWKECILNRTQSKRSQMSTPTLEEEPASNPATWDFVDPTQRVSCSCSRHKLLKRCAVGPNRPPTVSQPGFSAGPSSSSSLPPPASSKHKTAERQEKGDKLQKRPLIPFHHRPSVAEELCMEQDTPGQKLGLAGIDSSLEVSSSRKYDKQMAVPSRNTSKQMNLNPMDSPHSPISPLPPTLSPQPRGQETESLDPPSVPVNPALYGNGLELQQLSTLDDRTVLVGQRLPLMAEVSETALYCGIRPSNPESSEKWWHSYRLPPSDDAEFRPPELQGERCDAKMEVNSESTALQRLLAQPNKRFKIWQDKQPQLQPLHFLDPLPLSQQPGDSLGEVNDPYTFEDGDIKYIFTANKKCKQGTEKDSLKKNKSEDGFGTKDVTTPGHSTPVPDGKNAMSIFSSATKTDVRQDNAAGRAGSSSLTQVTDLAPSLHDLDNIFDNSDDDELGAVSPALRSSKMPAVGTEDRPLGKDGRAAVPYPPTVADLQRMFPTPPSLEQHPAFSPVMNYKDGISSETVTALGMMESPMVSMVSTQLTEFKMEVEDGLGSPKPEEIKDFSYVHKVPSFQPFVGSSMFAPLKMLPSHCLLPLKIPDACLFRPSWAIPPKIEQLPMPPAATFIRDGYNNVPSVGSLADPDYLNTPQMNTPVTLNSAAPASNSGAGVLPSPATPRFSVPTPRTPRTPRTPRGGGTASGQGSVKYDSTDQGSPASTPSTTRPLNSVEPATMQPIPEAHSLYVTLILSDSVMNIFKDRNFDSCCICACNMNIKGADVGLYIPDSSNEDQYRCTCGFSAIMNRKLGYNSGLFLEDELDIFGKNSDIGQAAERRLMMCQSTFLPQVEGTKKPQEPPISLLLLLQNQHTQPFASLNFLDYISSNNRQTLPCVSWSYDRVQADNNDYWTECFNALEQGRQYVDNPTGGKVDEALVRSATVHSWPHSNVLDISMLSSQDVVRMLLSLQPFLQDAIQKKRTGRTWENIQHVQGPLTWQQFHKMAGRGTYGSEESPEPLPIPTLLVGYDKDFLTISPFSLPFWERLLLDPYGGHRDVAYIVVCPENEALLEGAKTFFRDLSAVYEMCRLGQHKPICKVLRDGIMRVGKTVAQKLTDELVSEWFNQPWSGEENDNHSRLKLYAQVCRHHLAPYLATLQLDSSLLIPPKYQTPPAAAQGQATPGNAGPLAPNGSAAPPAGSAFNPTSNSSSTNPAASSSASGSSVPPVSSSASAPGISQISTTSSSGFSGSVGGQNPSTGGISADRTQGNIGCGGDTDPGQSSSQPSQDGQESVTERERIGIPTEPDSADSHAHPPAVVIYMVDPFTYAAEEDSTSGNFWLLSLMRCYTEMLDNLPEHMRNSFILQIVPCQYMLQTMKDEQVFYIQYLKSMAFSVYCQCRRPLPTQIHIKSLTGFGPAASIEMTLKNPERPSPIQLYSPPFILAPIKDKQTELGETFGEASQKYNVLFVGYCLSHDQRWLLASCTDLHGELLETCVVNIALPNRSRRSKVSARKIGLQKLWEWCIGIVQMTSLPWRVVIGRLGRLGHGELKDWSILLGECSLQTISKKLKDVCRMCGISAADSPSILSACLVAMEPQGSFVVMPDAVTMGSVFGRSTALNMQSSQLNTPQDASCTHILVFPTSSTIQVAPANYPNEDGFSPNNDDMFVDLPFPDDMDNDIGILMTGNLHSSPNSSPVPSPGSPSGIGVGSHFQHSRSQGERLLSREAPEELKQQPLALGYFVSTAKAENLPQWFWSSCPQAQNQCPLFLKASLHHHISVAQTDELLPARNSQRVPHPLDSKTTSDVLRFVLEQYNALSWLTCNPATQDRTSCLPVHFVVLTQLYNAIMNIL

Substance | binding
CDK19 (endogenous) (from UniProt Q9BWU1 1-502) (enzyme) | no binding
MED12L (endogenous) (from UniProt Q86YW9 1-2145) | binds
MED13L (endogenous) (from UniProt Q71F56 1-2210) | binds

Reference: article doi:10.1101/2024.07.01.601608
